Results published in PMC4245943.
No constants are given. Whether binding was seen depends on the method and setting. Binding seen in cells or lysates may run through a third protein. Some results given as binding are weak or reduced against the parent protein; the word gives no strength.

Sequences of proteins named here, by UniProt entry; tags and fusion partners are left off. A change or cut given only in a name is not applied to a line headed by its entry.
UniProt Q96EB6: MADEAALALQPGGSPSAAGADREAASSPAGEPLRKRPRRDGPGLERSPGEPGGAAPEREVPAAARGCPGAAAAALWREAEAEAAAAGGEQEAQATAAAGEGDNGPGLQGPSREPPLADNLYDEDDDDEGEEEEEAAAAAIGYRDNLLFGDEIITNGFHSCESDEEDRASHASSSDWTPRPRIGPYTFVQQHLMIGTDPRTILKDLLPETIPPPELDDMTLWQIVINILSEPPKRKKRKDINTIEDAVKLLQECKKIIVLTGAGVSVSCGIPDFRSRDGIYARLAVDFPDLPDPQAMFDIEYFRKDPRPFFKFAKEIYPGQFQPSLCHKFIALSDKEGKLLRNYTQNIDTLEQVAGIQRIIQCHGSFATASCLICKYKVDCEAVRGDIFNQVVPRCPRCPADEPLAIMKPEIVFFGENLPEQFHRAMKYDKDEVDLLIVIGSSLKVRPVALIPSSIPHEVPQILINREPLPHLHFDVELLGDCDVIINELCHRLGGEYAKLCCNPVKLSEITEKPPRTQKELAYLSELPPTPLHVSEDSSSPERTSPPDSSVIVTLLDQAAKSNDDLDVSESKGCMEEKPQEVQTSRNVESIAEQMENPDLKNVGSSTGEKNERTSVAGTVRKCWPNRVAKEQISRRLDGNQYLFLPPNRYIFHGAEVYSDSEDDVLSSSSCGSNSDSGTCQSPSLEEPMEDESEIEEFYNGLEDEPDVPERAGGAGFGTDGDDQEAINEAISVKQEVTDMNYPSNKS
UniProt Q8N163: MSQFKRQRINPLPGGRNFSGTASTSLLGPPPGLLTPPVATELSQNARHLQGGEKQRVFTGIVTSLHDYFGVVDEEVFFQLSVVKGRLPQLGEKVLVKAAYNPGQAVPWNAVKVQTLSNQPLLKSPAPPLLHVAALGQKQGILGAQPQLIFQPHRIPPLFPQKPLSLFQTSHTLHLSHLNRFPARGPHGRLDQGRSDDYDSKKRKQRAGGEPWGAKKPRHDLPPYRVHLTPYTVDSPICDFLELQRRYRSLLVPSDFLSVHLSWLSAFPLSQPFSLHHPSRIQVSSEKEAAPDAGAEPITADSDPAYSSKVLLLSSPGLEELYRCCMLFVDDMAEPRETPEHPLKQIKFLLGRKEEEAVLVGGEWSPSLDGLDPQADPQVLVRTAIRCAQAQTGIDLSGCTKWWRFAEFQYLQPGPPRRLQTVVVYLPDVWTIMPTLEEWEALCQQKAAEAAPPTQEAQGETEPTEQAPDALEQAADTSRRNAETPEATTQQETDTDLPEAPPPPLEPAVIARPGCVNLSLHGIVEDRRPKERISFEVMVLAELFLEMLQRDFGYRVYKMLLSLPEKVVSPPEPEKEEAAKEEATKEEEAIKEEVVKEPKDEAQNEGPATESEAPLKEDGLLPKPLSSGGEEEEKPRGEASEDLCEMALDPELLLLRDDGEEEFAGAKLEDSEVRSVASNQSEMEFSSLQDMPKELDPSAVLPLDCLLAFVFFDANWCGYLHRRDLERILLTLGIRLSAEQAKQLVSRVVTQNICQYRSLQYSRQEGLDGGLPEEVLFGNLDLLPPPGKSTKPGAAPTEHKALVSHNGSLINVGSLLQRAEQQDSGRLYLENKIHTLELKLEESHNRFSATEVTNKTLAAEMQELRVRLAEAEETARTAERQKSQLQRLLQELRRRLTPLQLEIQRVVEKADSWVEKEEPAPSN
UniProt O96017: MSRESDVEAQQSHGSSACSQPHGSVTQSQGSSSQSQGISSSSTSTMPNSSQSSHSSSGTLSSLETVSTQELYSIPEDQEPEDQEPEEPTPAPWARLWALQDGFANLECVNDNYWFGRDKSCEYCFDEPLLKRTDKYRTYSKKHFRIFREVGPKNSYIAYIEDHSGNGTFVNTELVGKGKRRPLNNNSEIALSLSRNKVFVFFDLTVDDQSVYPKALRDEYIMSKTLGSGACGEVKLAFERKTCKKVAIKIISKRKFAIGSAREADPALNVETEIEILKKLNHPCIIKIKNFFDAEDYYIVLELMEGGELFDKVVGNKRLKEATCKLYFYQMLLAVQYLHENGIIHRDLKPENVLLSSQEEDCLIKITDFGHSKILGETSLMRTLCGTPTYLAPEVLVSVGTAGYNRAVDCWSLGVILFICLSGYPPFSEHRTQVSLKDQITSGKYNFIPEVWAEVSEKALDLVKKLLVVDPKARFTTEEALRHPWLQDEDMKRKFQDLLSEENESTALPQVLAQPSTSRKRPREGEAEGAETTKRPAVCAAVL

Legend:
[1] = target: SIRT1, endogenous (human (endogenous in U2OS)) (UniProt Q96EB6); assay: co-IP; endogenous proteins immunoprecipitated with specific antibodies from lysates in ELB buffer (150 mM NaCl, 50 mM Hepes pH 7.5, 5 mM EDTA, 0.5% NP40) of U2OS cells (SIRT1 IP for Chk2 also from two other cell lines); cells untreated or treated with etoposide or neocarzinostatin, VRX0466617, or siRNA against Chk2, DBC1, SIRT1 or REGγ; western blot
[2] = target: DBC1 (Deleted in Breast Cancer 1), endogenous (human (endogenous in U2OS)) (UniProt Q8N163); assay: as above

- binding [1]: binds
- binding [2]: binds
Substance: Chk2 checkpoint kinase, endogenous (from UniProt O96017 1-543) (enzyme)
